Our source for the binding values is publication PMC11066040, “Nuclear phosphoinositide signaling promotes YAP/TAZ-TEAD transcriptional activity in breast cancer” (The EMBO Journal, 2024).

Sequences of proteins named here, by UniProt entry; tags and fusion partners are left off.
UniProt Q8NFU5: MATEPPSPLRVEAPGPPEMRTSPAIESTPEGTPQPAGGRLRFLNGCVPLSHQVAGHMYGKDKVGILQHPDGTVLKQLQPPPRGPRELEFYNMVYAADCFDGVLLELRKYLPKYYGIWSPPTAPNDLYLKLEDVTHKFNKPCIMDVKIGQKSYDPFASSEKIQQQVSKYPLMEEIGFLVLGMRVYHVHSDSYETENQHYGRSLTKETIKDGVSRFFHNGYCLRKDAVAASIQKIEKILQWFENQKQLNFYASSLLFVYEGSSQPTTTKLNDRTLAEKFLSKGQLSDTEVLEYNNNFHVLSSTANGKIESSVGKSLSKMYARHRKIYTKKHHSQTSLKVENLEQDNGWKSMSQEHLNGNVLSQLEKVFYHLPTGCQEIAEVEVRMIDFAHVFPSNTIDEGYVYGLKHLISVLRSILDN
UniProt Q99755: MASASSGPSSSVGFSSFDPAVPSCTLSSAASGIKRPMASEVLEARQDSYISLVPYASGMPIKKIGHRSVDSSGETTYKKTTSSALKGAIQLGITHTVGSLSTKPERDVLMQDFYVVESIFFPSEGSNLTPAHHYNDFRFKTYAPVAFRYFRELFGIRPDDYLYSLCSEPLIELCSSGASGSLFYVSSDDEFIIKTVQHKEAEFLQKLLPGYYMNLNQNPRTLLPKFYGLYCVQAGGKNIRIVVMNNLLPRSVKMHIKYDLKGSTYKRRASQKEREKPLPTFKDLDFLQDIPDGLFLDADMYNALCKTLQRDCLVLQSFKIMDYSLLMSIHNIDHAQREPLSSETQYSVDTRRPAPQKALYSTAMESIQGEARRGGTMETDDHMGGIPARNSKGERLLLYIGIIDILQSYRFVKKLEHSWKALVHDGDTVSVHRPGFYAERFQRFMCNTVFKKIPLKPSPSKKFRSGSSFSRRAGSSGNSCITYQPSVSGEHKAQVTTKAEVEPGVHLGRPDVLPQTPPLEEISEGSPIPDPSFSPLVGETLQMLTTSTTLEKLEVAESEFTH

These are yes or no findings as the source states them, for the method shown. For some of these results: In cells and extracts the contact can be indirect. Some entries that bind do so weakly or less than the wild type. For some of these results: Sequences can lack the tags named with a protein.

For one test, the target named is T1, HA-tagged p73 (UniProt O15350).
T1 sequence: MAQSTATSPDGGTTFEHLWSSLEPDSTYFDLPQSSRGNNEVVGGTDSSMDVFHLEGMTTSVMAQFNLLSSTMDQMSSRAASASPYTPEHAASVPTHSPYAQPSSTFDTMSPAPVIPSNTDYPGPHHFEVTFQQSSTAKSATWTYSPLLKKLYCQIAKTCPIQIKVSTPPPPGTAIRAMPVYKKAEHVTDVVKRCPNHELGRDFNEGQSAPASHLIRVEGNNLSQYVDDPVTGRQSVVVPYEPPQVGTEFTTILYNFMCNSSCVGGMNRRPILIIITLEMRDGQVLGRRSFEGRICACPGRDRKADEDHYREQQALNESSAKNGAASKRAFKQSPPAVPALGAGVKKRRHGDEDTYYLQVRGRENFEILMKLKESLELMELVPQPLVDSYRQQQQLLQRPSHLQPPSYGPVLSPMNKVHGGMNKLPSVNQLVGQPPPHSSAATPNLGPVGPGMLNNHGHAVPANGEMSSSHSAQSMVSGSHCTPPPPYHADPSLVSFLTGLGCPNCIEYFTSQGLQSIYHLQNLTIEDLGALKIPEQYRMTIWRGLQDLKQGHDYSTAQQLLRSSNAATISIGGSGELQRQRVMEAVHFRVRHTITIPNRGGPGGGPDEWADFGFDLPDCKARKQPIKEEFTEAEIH
Briefly: co-IP; tagged proteins co-transfected in HEK293 cells for 48 h; lysis in 1% Brij58, 150 mM NaCl, 20 mM HEPES pH 7.4; precipitated by anti-HA, anti-Myc or anti-Flag antibody, partner detected by its tag; in one panel cells treated with 5 μM LPA for 2 h.

In test [1] the target is Myc-tagged IPMK, wild type (UniProt Q8NFU5). The test is described as above.
The target in the next test is GST-3Q mutant YAP (UniProt P46937). As to the kind of experiment: pull-down; 0.1 μM GST alone or GST-YAP (WT, 2Q, 3Q) prebound to glutathione beads, incubated with 0.05 μM His6-tagged PIPKIα or IPMK, 1 h at 25 °C; immunoblotting; both purified. For orientation: In western blotting, separated proteins are transferred to a membrane and probed.
Test [2] has as its target GST-tagged YAP (Yes-associated protein 1), wild type (UniProt P46937). The test is described as above.
Test [3] deals with endogenous YAP (Yes-associated protein 1) (human (endogenous in MDA-MB-231)) (UniProt P46937). As to the kind of experiment: proximity ligation; fixed MDA-MB-231 cells, serum-starved and then stimulated with 10% serum for 1 h; endogenous proteins; PLA puncta counted by confocal microscopy.
Test [4] has the same target. As to the kind of experiment: co-IP; endogenous YAP immunoprecipitated from lysates of serum-starved MDA-MB-231 cells.
Test [5] has the same target. As to the kind of experiment: proximity ligation; fixed serum-starved MDA-MB-231 cells; endogenous proteins; PLA puncta counted by confocal microscopy.
Test [6] shares this target. Briefly: co-IP; endogenous YAP immunoprecipitated from MDA-MB-231 lysates; cells stimulated with 10% serum or 5 μM LPA for 1 h after starvation, or grown in 10% serum and treated with LPA, SDF-1α or EGF for 90 min.

For the substance “Flag-3Q mutant YAP (from UniProt P46937 1-504)”, in the test with HA-tagged p73, the binding entry is on record as “binds”.

On to “Flag-tagged YAP, wild type (from UniProt P46937 1-504)”, for which the binding entry (in test [1]; with HA-tagged p73) was “binds” throughout.

Regarding “His6-tagged IPMK (inositol polyphosphate multikinase), wild type (from UniProt Q8NFU5 1-416) (enzyme)”, the binding result (with GST-3Q mutant YAP; in test [2]) was “binds” in each case.

Consider “endogenous IPMK (from UniProt Q8NFU5 1-416) (enzyme)”, for which the binding entry in test [3] is “binds”; in test [4], “binds weakly”; in test [5], “binds weakly”; in test [6] it was “binds”.

For “endogenous PIPKIα (from UniProt Q99755 1-562) (enzyme)”, the binding result in test [3] was “binds”; in test [4], “binds weakly”; in test [5], “binds weakly”; in test [6], “binds”.
